These are yes or no findings as the source states them, for the method shown. In cells and extracts the contact can be indirect. Some results given as binding are weak or reduced against the parent protein; the word gives no strength.
Tests used:
Assay in all cases: co-IP; HeLa cells transfected 24 h; lysate in RIPA buffer plus protease inhibitors, sonicated; immunoprecipitation with anti-GFP mouse monoclonal antibody and protein G beads, three washes with RIPA; western blot for Nopp140 and GFP
coilin–GFP mutant L = coilin–GFP mutant L (UniProt P38432)
coilin–GFP mutant I = coilin–GFP mutant I (UniProt P38432)
WT coilin–GFP = WT coilin–GFP (UniProt P38432)

Amino acid sequences for entries named in this document (tags omitted). A change or cut given only in a name is not applied to a line headed by its entry. Chains listed by the source or under a name are the forms on record and can include a tag or linker.
UniProt P38432: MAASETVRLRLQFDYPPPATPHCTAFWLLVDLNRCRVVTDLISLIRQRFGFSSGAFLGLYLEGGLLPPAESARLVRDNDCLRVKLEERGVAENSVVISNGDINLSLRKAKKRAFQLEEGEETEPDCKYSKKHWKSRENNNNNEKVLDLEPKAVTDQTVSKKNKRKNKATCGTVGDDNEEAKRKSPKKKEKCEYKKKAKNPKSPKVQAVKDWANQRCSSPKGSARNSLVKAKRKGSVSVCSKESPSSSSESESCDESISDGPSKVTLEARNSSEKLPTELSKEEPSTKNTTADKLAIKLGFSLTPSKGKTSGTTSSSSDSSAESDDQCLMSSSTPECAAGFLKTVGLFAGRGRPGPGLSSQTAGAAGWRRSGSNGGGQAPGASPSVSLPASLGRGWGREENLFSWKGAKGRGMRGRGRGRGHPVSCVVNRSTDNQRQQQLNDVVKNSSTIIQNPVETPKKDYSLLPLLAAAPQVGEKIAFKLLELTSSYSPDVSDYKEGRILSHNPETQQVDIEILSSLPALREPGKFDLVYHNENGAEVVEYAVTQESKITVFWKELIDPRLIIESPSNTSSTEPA
coilin–GFP mutant L (P38432, form named): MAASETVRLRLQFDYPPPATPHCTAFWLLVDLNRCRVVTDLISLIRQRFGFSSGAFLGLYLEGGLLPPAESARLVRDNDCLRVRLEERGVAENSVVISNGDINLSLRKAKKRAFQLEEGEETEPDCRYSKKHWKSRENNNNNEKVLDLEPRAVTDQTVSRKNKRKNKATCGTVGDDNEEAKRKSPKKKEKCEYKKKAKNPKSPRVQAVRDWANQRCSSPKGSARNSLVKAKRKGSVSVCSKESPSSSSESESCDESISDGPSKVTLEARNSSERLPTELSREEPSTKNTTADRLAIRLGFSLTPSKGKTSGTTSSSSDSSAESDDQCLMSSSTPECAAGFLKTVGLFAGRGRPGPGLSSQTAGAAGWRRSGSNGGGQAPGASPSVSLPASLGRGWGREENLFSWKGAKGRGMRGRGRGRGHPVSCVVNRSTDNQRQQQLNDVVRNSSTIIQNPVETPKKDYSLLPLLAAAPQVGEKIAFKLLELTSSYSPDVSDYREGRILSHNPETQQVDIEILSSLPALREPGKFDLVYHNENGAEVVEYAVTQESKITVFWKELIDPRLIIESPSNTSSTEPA
coilin–GFP mutant I (P38432, form named): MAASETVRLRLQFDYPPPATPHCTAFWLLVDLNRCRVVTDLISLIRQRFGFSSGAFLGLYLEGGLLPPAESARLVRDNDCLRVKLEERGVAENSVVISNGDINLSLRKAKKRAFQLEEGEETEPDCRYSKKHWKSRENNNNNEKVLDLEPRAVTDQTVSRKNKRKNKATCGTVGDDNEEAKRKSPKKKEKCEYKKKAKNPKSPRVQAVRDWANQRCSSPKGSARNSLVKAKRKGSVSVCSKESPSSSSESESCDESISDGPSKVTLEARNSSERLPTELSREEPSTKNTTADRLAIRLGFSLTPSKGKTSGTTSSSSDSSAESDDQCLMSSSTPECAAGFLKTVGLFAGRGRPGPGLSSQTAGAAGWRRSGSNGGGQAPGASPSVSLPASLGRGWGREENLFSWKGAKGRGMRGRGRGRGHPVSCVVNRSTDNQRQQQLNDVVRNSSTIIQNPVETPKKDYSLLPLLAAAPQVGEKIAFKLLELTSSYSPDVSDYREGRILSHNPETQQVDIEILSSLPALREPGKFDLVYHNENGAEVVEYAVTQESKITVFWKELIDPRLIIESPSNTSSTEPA

Measured: binding

B1: Nopp140 (protein, UniProt Q14978 1-699)
chain: MADAGIRRVVPSDLYPLVLGFLRDNQLSEVANKFAKATGATQQDANASSLLDIYSFWLKSAKVPERKLQANGPVAKKAKKKASSSDSEDSSEEEEEVQGPPAKKAAVPAKRVGLPPGKAAAKASESSSSEESSDDDDEEDQKKQPVQKGVKPQAKAAKAPPKKAKSSDSDSDSSSEDEPPKNQKPKITPVTVKAQTKAPPKPARAAPKIANGKAASSSSSSSSSSSSDDSEEEKAAATPKKTVPKKQVVAKAPVKAATTPTRKSSSSEDSSSDEEEEQKKPMKNKPGPYSSVPPPSAPPPKKSLGTQPPKKAVEKQQPVESSEDSSDESDSSSEEEKKPPTKAVVSKATTKPPPAKKAAESSSDSSDSDSSEDDEAPSKPAGTTKNSSNKPAVTTKSPAVKPAAAPKQPVGGGQKLLTRKADSSSSEEESSSSEEEKTKKMVATTKPKATAKAALSLPAKQAPQGSRDSSSDSDSSSSEEEEEKTSKSAVKKKPQKVAGGAAPSKPASAKKGKAESSNSSSSDDSSEEEEEKLKGKGSPRPQAPKANGTSALTAQNGKAAKNSEEEEEEKKKAAVVVSKSGSLKKRKQNEAAKEAETPQAKKIKLQTPNTFPKRKKGEKRASSPFRRVREEEIEVDSRVADNSFDAKRGAAGDWGERANQVLKFTKGKSFRHEKTKKKRGSYRGGSISVQVNSIKFDSE
binds: all assays above

Source: PMC11827600
